Where a chain is given by its changes, count along the chain named. Numbers in names are those of the source. No constants are given. Whether binding was seen depends on the method and setting. Some entries that bind do so weakly or less than the wild type. For some of these results: Where a sequence is shown, tags or fusion partners need not be part of it.

Protein sequences, listed by entry. Tags and fused reporters are not part of them. Residues count along the entry.
UniProt Q9ES57, residues 26-238: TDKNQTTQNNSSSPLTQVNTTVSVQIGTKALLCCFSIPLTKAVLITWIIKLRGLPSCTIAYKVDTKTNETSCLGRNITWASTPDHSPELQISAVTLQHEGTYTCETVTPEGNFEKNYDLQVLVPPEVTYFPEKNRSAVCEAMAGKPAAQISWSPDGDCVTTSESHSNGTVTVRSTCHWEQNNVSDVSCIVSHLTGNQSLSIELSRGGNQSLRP

Experiment [1] has as its target T1, Hybrid CD200R1 MH (mouse;human) (UniProt Q9ES57+Q8TD46). Briefly: ELISA, plate-bound MH hybrid (1 ug/mL), antibody 0.0192-300 nM, O.D 450 nm; panel 'P001 MH domain-4)'. In general terms: An ELISA detects its analyte on a solid surface through an enzyme-linked reagent.
The target in experiment [2] is human CD200R1 expressed on cells (Jurkat-CD200R1, U937-CD200R1, HH cells) (human) (UniProt Q8TD46). The experiment in a line: cell binding assay (FACS); HH cells by the legend of FIG. 9.
For experiment [3], the target named is T2, human CD200R1 recombinant protein (construct not stated) (human) (UniProt Q8TD46).
T2 sequence (looked up): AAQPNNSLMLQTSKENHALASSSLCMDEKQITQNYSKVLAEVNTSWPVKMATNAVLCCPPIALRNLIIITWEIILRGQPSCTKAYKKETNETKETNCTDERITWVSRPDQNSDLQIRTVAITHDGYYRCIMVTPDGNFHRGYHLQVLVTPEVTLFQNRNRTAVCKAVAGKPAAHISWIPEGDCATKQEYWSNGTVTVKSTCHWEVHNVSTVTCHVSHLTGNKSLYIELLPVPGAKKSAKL
Briefly: antigen binding assay (ELISA), affinity screening against P001018.

The target of experiment [4] is T2, human CD200R1 recombinant protein (construct not stated) (human). The experiment in a line: ELISA on human CD200R1, O.D 450 nm, about 0.4-300 nM.
Experiment [5] deals with mouse CD200R1 protein (R&D systems, 2554-CD) (mouse) (UniProt Q9ES57). The experiment in a line: ELISA on mouse CD200R1, O.D 450 nm, 0.0192-300 nM; panel 'P001_CD200R1 mouse 1'.
In experiment [6] the target is T1, Hybrid CD200R1 MH (mouse;human). The experiment in a line: ELISA, plate-bound MH hybrid (1 ug/mL), antibody 0.0192-300 nM, O.D 450 nm; panel 'P001 MH domain-3)'.
The target of experiment [7] is human CD200R1 expressed on cells (Jurkat-CD200R1, U937-CD200R1, HH cells) (human) (UniProt Q8TD46). Briefly: flow cytometry, IgG1 form at 500 nM; MFI normalized to P001017 (chimeric OX108) = 100; upper panel 'CD200R1 highly expressing cell' (HH), lower panel 'Exogenous CD200R1(+) cell' (Jurkat-CD200R1). (A flow cytometer gives signals particle by particle.)
In experiment [8] the target is T3, recombinant human CD200R1 Fc chimera protein, CF (R&D systems, 3414-CD) (human) (UniProt Q8TD46).
T3 sequence (looked up): T2 sequence (looked up)
The experiment in a line: ELISA, plate-bound human CD200R1-Fc (2 ug/mL), IgG 0.0192-300 nM, anti-human IgG F(ab')2-HRP, OD 450 nm; panel 'human CD200R1'.

The target of experiment [9] is human CD200R1 expressed on cells (Jurkat-CD200R1, U937-CD200R1, HH cells) (human) (UniProt Q8TD46). The experiment in a line: flow cytometry on Jurkat-CD200R and HH cells; IgG4 and LALAPG forms.
The target is the same in experiment [10]. Briefly: flow cytometry as in Example 12, IgG4 form; MFI normalized to chOX108 = 100; panels 'CD200R1 highly expressing cell (IgG4)' (HH) and 'Exogenous CD200R1 O/E cell (IgG4)' (Jurkat-CD200R1).
For experiment [11] the target is unchanged. The experiment in a line: flow cytometry as in Example 12, LALAPG form; MFI normalized to chOX108 = 100; panels 'CD200R1 highly expressing cell (LALAPG)' (HH) and 'Exogenous CD200R1 O/E cell (LALAPG)' (Jurkat-CD200R1).

B1: 6A8 (hybridoma clone) (antibody, V domains shown)
VH: QVQLQQPGAELVKPGAPVKLSCKASGYTFTSYWMNWVKQRPGRGLEWIGRIDPSDSETHYNQKFKDKATLTVDKSSSTAYIQLSSLTSEDSAVYYCARSGGWLPGFAYWGQGTLVTVSA
VL: ENVLTQSPAIMSASPGEKVTMTCSASSSLSYMLWYQQKSSTSPKLWIYDTSKLASGVPGRFSGSGSGNSYSLTISSMEAEDVGTYYCFQGSGNPLMYTFGGGTKLEIK
Take B1: the binding result in experiment [1] is given as “binds”.

B2: P001018 scFv mutant H3-Y102K (scFv)
scFv: QVQLVQSGAEVKKPGASVKVSCKASGYTFTSYVMHWVRQAPGQGLEWMGYINPYNDDTNYNEKFKGRVTMTRDTSTSTVYMELSSLRSEDTAVYYCAREDYYGSRWGKWGQGTLVTVSSGGGGSGGGGSGGGGSDIVLTQSPASLAVSPGQRATITCRASKSVSTSGYSYMHWYQQKPGQPPKLLIYLASNLESGVPARFSGSGSGTDFTLTINPVEANDTANYYCQHSRELLTFGQGTKVEIK
Regarding B2, the binding result in experiment [2] and in experiment [3] was “binds” in each case.

B3: P001018 scFv mutant H3-Y102T (scFv)
scFv: B2 scFv with K108T
Turning to B3, the binding result in [2] and in [3] was “binds” each time.

B4: P001023 (antibody, V domains shown)
VH: QVQLVESGGGVVQPGGSLRLSCAASGYTFTSYVMHWVRQAPGKGLEWVAYINPYNDDTNYNEKFKGRFTISRDNSKNTLYLQMNSLRAEDTAVYYCAKEDYYGSRWGYWGQGTLVTVSS
VL: DIVLTQSPASLAVSPGQRATITCRASKSVSTSGYSYMHWYQQKPGQPPKLLIYLASNLESGVPARFSGSGSGTDFTLTINPVEANDTANYYCQHSRELLTFGQGTKVEIK
In the case of B4, the binding entry in experiment [4] is given as “binds”.

B5: P001018 (huOX108.1) (antibody, V domains shown)
VH: QVQLVQSGAEVKKPGASVKVSCKASGYTFTSYVMHWVRQAPGQGLEWMGYINPYNDDTNYNEKFKGRVTMTRDTSTSTVYMELSSLRSEDTAVYYCAREDYYGSRWGYWGQGTLVTVSS
VL: B4 VL
For the molecule B5, the binding entry in [5] is given as “no binding (tested: 300 nM)”.

B6: P001020 (antibody, V domains shown)
VH: B4 VH
VL: DIQMTQSPSSLSASVGDRVTITCRASKSVSTSGYSYMHWYQQKPGKAPKLLIYLASNLESGVPSRFSGSGSGTDFTLTISSLQPEDFATYYCQHSRELLTFGQGTKVEIK
In the case of B6, the binding result in [4] is reported as “binds”.

B7: 6C3 (hybridoma clone) (antibody, V domains shown)
VH: QVQLQQPGAELVRPGASVKLSCKASAYTFTSYWMNWVKQRPEQGLEWIGRIDPYDSETHYNQKFKDKAILTVDKSSSTAYMQLSSLTSEDSAVYYCARVDGNHLFDYWGQGTTLTVSS
VL: DIKMTQSPSSMYASLGERVTITCKASQDINSYLSWFQQKPGKSPKTLIYRANRLVDGVPSRFSGSGSGQDYSLTISSLEYEDMGIYYCLQYDEFPYTFGGGTKLEIK
Regarding B7, the binding entry in experiment [1] is recorded as “binds”.

B8: P001013 (IgG) (antibody, V domains shown)
VH: EVQLLESGGGLVQPGGSLRLSCAASGFTFSGYDMSWVRQAPGKGLEWVSGIPPGDGSTYYADSVKGRFTISRDNSKNTLYLQMNSLRAEDTAVYYCAKHLVSDHPPSQYSDDGMDVWGQGTLVTVSS
VL: QSVLTQPPSASGTPGQRVTISCSGSSSNIGNNDVNWYQQLPGTAPKLLIYYNSQRPSGVPDRFSGSKSGTSASLAISGLRSEDEADYYCGSWDYSLNGYVFGGGTKLTVL
With B8, in experiment [6], the binding result is listed as “binds”.

B9: P001010 (IgG) (antibody, V domains shown)
VH: EVQLLESGGGLVQPGGSLRLSCAASGFTFSNYAMSWVRQAPGKGLEWVSSISPGGGSIYYADSVKGRFTISRDNSKNTLYLQMNSLRAEDTAVYYCARDPGQMFWPLFDYWGQGTLVTVSS
VL: B8 VL with S23T, N31S, D33N, N35S, Y51D, N52D, Q54H, Y94A
In the case of B9, the binding result in experiment [7] is reported as “binds”.

B10: P001012 (IgG) (antibody, V domains shown)
VH: EVQLLESGGGLVQPGGSLRLSCAASGFTFSGYDMSWVRQAPGKGLEWVSGISSSGGNKYYADSVKGRFTISRDNSKNTLYLQMNSLRAEDTAVYYCARAIRPCISAPCYYDDAMDVWGQGTLVTVSS
VL: B8 VL with S23T, N31S, D33Y, N35S, Q38R, Y51S, N52D, N97S, G98A
With B10, the binding entry in experiment [7] is “binds”.

B11: P001007 (IgG) (antibody, V domains shown)
VH: EVQLLESGGGLVQPGGSLRLSCAASGFTFSNYDMSWVRQAPGKGLEWVSAISYDNGNTYYADSVKGRFTISRDNSKNTLYLQMNSLRAEDTAVYYCARNRAWFDYWGQGTLVTVSS
VL: B8 VL with D33N, N35Y, N52D, G90A, S91A, Y94A
In the case of B11, the binding result in experiment [8] is on record as “binds”.

B12: P001006 (IgG) (antibody, V domains shown)
VH: EVQLLESGGGLVQPGGSLRLSCAASGFTFSDYAMSWVRQAPGKGLEWVSGISYGNGNTYYADSVKGRFTISRDNSKNTLYLQMNSLRAEDTAVYYCAKDPWQTAINDFDYWGQGTLVTVSS
VL: B8 VL with S23T, D33S, Y51T, Q54H, G58E, S91T, Y94S, N97S
For the molecule B12, the binding result in [9], in [8], in [10], in [11] and in [7] was “binds” in each case.

B13: P001008 (IgG) (antibody, V domains shown)
VH: EVQLLESGGGLVQPGGSLRLSCAASGFTFSSYDMSWVRQAPGKGLEWVSWISHGGGSIYYADSVKGRFTISRDNSKNTLYLQMNSLRAEDTAVYYCARDAPALMHSLFDYWGQGTLVTVSS
VL: B8 VL with N31S, D33H, N52D, Y94A
As to B13, the binding result in [9], in [10], in experiment [11] and in experiment [7] was “binds” throughout.

Values taken from US20260263521A1, “ANTI-CD200R1 ANTIBODY AND USE THEREOF” (AIMED BIO INC., priority 2023, published 2026).
